Experimental data reported in PubChem BioAssay AID624256 (NMMLSC, 2012).
The other results are listed elsewhere or left out.

Test: induction of myeloid progenitor differentiation, primary screen, cell-based, flow cytometry, MLPCN library (AID 624256);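 further: cells exposed to compound for four days before flow analysis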
Conditions: ER-HoxA9 myeloid progenitors, lysozyme-GFP differentiation, measured here: differentiation confirmed by MAC1 staining, at 10 µM, stronger effect = higher value

Compound	GFP+ MAC1+ double positive [%]
O=[N+]([O-])c1cc([N+](=O)[O-])c(-n2nnc3ccccc32)c([N+](=O)[O-])c1	0.2
CCOP(=O)(NC(=NC(C)c1ccccc1)NC(C)c1ccccc1)OCC (stereo not drawn)	0.7
Nc1ccc(CCCCOc2ccccc2)cc1.O=[N+]([O-])c1cc([N+](=O)[O-])c(O)c([N+](=O)[O-])c1	1.6
O=P1(Nc2ccccn2)COc2ccccc2OC1	1.7
CCC1=CC2Cc3nc4ccc(Cl)cc4c(N)c3C(C1)C2 (stereo not drawn)	0.5
O=C(O)C(O)c1ccc(N(CCCl)CCCl)cc1.c1ccncc1 (stereo not drawn)	1.5
CCOP(=O)(Nc1ccc(C)cn1)OCC	0.3
CN(CCCl)Cc1cc(Cl)c(NC2=NCCN2)c(Cl)c1	4.4
CC(C)(C)C(=O)NC(Sc1ncccn1)C(Cl)(Cl)Cl (stereo not drawn)	0.2
O=P1(N(CCCl)CCCl)NCCC(C(F)(F)F)O1 (stereo not drawn)	1.1
Clc1n[nH]nc1-c1nn[nH][15n]1	0.9
CN(Cc1cccnc1)C(=O)COc1ccc(Cl)c(Cl)c1.O=[N+]([O-])c1cc([N+](=O)[O-])c(O)c([N+](=O)[O-])c1	0.6
O=[N+]([O-])c1cc([N+](=O)[O-])c(-c2cnn(-c3ccccc3)c2)c([N+](=O)[O-])c1	0.8
COc1ccccc1CNC(=O)COC(=O)C(O)(c1ccccc1)c1ccccc1	0.2
Cc1ccc(S(=O)(=O)N(CCCN)CCCc2c(C)nc(N)[nH]c2=O)cc1.O=[N+]([O-])c1cc([N+](=O)[O-])c(O)c([N+](=O)[O-])c1	0.5
CC(C)/C=N\N=C(\N)N[N+](=O)[O-]	0.2
CN(C(=O)Cc1ccc(Cl)c(Cl)c1)[C@@H]1CCCC[C@H]1N1CCCC1	4.1
CC1(CBr)Cn2c(nc3ccccc3c2=O)S1 (stereo not drawn)	1
Cc1nc2ccc3ccccc3c2s1.O=[N+]([O-])c1cc([N+](=O)[O-])c(O)c([N+](=O)[O-])c1	0.3
CC1CCC(C(C)C)C(OP(=O)(Nc2ccccn2)c2ccccc2)C1 (stereo not drawn)	0.1
Cc1ccc(C(=O)OC2CN3CCC2CC3)cc1 (stereo not drawn)	0.5
Cc1nn(-c2ccccc2)c2c1P(=O)(N1CCOCC1)N(C)C(c1ccccc1)=N2 (stereo not drawn)	0.8
COc1cc(C2NCCC3(OCCO3)C2(C)C)cc(OC)c1OC.O=[N+]([O-])c1cc([N+](=O)[O-])c(O)c([N+](=O)[O-])c1 (stereo not drawn)	0.7
CCOC(=O)C(CC)C1=NC(C)(C)Cc2ccccc21.O=[N+]([O-])c1cc([N+](=O)[O-])c(O)c([N+](=O)[O-])c1 (stereo not drawn)	0.2
CN(C)C1(CNC(=O)c2ccc(S(C)(=O)=O)cc2)CCCCC1	0.6
CC1=C2N=C(C=C3N=C(C(C)=C4[N-][C@@](C)([C@@H]5N=C1[C@](C)(CCC(=O)NC[C@@H](C)OP(=O)([O-])O[C@H]1[C@@H](O)[C@@H](n6cnc7cc(C)c(C)cc76)O[C@@H]1CO)[C@H]5CC(N)=O)[C@@](C)(CC(N)=O)[C@@H]4CCC(N)=O)[C@@](C)(CC(N)=O)[C@@H]3CCC(N)=O)C(C)(C)[C@@H]2CCC(N)=O.[C-]#N.[Co+3]	2

Compound	GFP+ MAC1+ double positive [%]
O=[N+]([O-])c1cc([N+](=O)[O-])c(Nc2nnnn2CCO)c([N+](=O)[O-])c1	2.1
CCCC1OP(=O)(Nc2ccccc2)OCC1CC (stereo not drawn)	0.5
O=C(/C=C/c1ccccc1)OC1CN2CCC1CC2 (stereo not drawn)	0.8
COc1ccccc1OP(C)(=O)Nc1c(C)cccc1C (stereo not drawn)	0.9
CN1CCCCC1COC(=O)C1(O)c2ccccc2CCc2ccccc21 (stereo not drawn)	0.4
O=P1(Nc2ncccn2)COc2ccccc2OC1	0.5
CCCOc1ccc(NP(C)(=O)Oc2ccc(Cl)cc2)cc1 (stereo not drawn)	0.3
Nc1cccc([As](=O)(O)c2ccccc2)c1	0.3
CP(=O)(Nc1ccc(SC(F)(F)F)cc1)Oc1ccccc1 (stereo not drawn)	0.9
COc1ccc(-c2ccccn2)cc1.O=[N+]([O-])c1cc([N+](=O)[O-])c(O)c([N+](=O)[O-])c1	0.9
Cc1ccc(OCC(=O)OC2CN3CCC2CC3)cc1 (stereo not drawn)	0.7
O=[As](O)(c1cccs1)c1cccs1	0.8
O=P1(Nc2ccc(Br)cn2)COc2ccccc2OC1	0.3
NS(=O)(=O)c1cccc(NC(=O)COC(=O)C(O)(c2ccccc2)c2ccccc2)c1	1.1
O=P(Nc1nccs1)(Oc1ccccc1)Oc1ccccc1	0.4
O=P(Nc1nccs1)(c1ccccc1)c1nc2ccccc2s1 (stereo not drawn)	1
CCOP1(=S)c2c(C)nn(CCC#N)c2N=C(c2ccccc2F)N1C (stereo not drawn)	7.2
O=C(O)c1cccc(Nc2c([N+](=O)[O-])cc([N+](=O)[O-])cc2[N+](=O)[O-])c1	0.7
CS(=O)(=O)c1cc([N+](=O)[O-])c2no[n+]([O-])c2c1	0.2
Nc1ccccc1[As](=O)(O)c1ccccc1	0.6
O=C(O)COc1ccc([As](=O)(O)O)cc1[N+](=O)[O-]	0.9
NC(=O)Nc1ccc([As](=O)(O)O)cc1	3
CN(C(=O)Cc1ccccc1)[C@@H]1CC[C@]2(CCCO2)C[C@H]1N1CCCC1	2.5
CCOP1(=S)c2c(C)nn(CCC#N)c2N=C(c2ccc(F)cc2)N1C (stereo not drawn)	1.5
N#CCCN(C(=O)COC(=O)C(O)(c1ccccc1)c1ccccc1)c1ccc(F)cc1	1.2
CC1=NCCc2c1[nH]c1ccccc21.O=[N+]([O-])c1cc([N+](=O)[O-])c(O)c([N+](=O)[O-])c1	0.6

Compound	GFP+ MAC1+ double positive [%]
CN(C(=O)Cc1ccc(Cl)c(Cl)c1)[C@H]1CC[C@@]2(CCCO2)C[C@@H]1N1CCCC1	4.3
O=[N+]([O-])c1ccc2c(c1)nnn2O	6.4
O=C(OC1CN2CCC1CC2)c1ccc(Cl)cc1 (stereo not drawn)	0.5
CS(=O)(=O)c1ccc(Cl)c(NC(=O)COC(=O)C(O)(c2ccccc2)c2ccccc2)c1	1.3
O=[As](O)(O)c1cccnc1	0.3
COc1cc(C(=O)NCC2(N3CCOCC3)CCCCC2)cc(Cl)c1OC(C)C	0.4
Cc1cc(C)cc(OP(C)(=O)Nc2ccc(C)cc2C)c1 (stereo not drawn)	7.4
Cc1cccc(OCC(=O)OC2CN3CCC2CC3)c1 (stereo not drawn)	0.5
O=[As](O)(c1cccc(O)c1)c1cccc(O)c1	0.3
CCOC(=O)c1ccc(NP(C)(=O)Oc2cc(C)cc(C)c2)cc1 (stereo not drawn)	0.6
Cc1ccc(NCCc2c([N+](=O)[O-])cc([N+](=O)[O-])cc2[N+](=O)[O-])cc1	0.7
Nc1cccc2c([As](=O)(O)O)cccc12	1.6
Cc1cc(C)cc(OP(C)(=O)Nc2ccccn2)c1 (stereo not drawn)	1
CP(=O)(Nc1cccc(Br)c1)Oc1ccccc1 (stereo not drawn)	0.1
Cc1ccc(C)c(NP(C)(=O)Oc2ccccc2)c1 (stereo not drawn)	2.5
CCCOP(=S)(Nc1nc(N)cc(=O)[nH]1)OCCC	0.5
CCOP(=O)(Nc1cccc2ccccc12)OCC	0.6
Cc1c2c(nc3ccccc13)SC(C(Cl)Cl)C2 (stereo not drawn)	0.3
Cc1cc(=O)[nH]c(N[N+](=O)[O-])n1	0.7
CCN(CC)CCCOC(=O)C(O)(c1ccccc1)c1ccccc1	1
O=C(OC1CN2CCC1CC2)C12CC3CC(CC(C3)C1)C2 (stereo not drawn)	0.4
O=P1(N(CCCl)CCCl)OCCCN1CCCl (stereo not drawn)	0.9
O=P1(N(CCCl)CCCl)Nc2ccccc2N1	1.5
COc1cc(I)ccc1[As](=O)(O)O	0.4
COc1ccc2nc(NP(=O)(c3ccccc3)c3ccccc3)sc2c1	0.4
O=[N+]([O-])c1cc(Oc2ccc([N+](=O)[O-])cc2C(F)(F)F)cc([N+](=O)[O-])c1	1.6

Compound	GFP+ MAC1+ double positive [%]
COc1ccccc1-c1ccccn1.O=[N+]([O-])c1cc([N+](=O)[O-])c(O)c([N+](=O)[O-])c1	1.5
COc1ccc(N/C(=N/P(=O)(N2CCOCC2)N2CCOCC2)N2CCOCC2)cc1	0.4
O=[N+]([O-])c1cc([N+](=O)[O-])c(Nc2cccnc2)c([N+](=O)[O-])c1	2.5
O=[N+]([O-])c1ccc(-c2cc([N+](=O)[O-])c(O)c([N+](=O)[O-])c2)cc1	1.2
COc1cc(C(=O)NCC2(N3CCOCC3)CCCCC2)ccc1OCC(C)C	0.2
O=[As](O)(c1ccc(O)cc1)c1ccccc1O	0.2
C[As](=O)(O)c1cccc(C(=O)O)c1	0.4
Cc1cccc(C)c1OP(C)(N)=O (stereo not drawn)	0.6
[N-]=[N+]=NC1CCCCC1NC(=O)c1cc([N+](=O)[O-])cc([N+](=O)[O-])c1 (stereo not drawn)	1.8
Cc1ccc(OP(=O)(Nc2ccc([N+](=O)[O-])cn2)Oc2ccc(C)cc2)cc1	0.6
CC(C)(C)c1ccc(OP(C)(=O)Nc2ccc(SC(F)(F)F)cc2)cc1 (stereo not drawn)	0.5
Cc1ccc2nc3c(c(C)c2c1)CC(C(Cl)Cl)S3 (stereo not drawn)	0.5
ClCCSc1nnc(-c2cccnc2)o1	0.5
CCOC(=O)c1ccc(NP(C)(=O)Oc2ccccc2)cc1 (stereo not drawn)	0.3
COC(=O)C1(C)COP(=O)(N2CCCCCC2)OC1 (stereo not drawn)	1.4
Cc1ccc(NP(C)(=O)Oc2ccccc2)c(C)c1 (stereo not drawn)	0.3
CC(C)c1ccc(OP(=O)(Nc2ccccn2)Oc2ccccc2F)cc1 (stereo not drawn)	0.5
COc1ccccc1OP(C)(=O)Nc1ccc(C)cc1 (stereo not drawn)	0.3
COc1ccc(OP(C)(=O)Nc2cccc(F)c2)cc1 (stereo not drawn)	0.7
O=[N+]([O-])c1cc([N+](=O)[O-])c(-c2ccn[nH]2)s1	3.4
CC(C)NC(=O)NP(=O)(Oc1ccccc1)Oc1ccccc1	0.4
CCN(CC)C(=S)SC(NC=O)C(Cl)(Cl)Cl (stereo not drawn)	0.8
O=C(OC1CN2CCC1CC2)c1cccc2[nH]cnc12 (stereo not drawn)	0.6
Cc1cc(C)cc(OP(C)(N)=O)c1 (stereo not drawn)	0.1
O=C(O)C(=O)c1ccc(N(CCCl)CCCl)cc1.c1ccc(Nc2ccccc2)cc1	1.5
